By UniProt entry, the sequences of proteins in these tests, tags left out.
UniProt P07355: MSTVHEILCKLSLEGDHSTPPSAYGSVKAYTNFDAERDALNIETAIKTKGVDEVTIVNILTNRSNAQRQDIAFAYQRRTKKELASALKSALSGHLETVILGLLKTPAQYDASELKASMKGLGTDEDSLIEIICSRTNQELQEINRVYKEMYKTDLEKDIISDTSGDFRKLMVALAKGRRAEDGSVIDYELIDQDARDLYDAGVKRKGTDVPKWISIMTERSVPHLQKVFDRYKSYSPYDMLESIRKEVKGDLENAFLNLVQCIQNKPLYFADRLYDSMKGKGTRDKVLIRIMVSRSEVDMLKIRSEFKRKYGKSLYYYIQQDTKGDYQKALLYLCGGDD

In publication PMC8655068, “Quantitative proteomic screen identifies annexin A2 as a host target for Salmonella pathogenicity island-2 effectors SopD2 and PipB2” (Scientific Reports, 2021):

Tests used:
[1] = target: T1, SopD2-2HA (S. Typhimurium SL1344) (UniProt Q8ZQC8); experiment: affinity purification with mass spectrometry; SILAC-labelled HeLa cells infected 8 h with T3SS2+ S. Typhimurium secreting an HA-tagged effector; RIPA lysate mixed 1:1 with oppositely labelled lysate of vector-control infection; anti-HA magnetic beads overnight at 4 °C; basic elution, SDS-PAGE, in-gel digestion, LC-MS/MS; 3 replicates with one label swap
T1 sequence: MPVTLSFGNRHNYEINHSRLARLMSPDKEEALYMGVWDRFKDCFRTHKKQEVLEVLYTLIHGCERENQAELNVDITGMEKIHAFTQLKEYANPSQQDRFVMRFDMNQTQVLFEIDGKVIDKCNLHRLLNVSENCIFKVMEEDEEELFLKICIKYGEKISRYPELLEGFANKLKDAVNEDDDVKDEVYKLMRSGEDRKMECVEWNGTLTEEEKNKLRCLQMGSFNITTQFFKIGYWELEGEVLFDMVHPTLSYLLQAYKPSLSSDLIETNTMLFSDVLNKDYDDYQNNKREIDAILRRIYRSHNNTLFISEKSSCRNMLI

[2] = target: T2, PipB2-2HA (S. Typhimurium SL1344) (UniProt Q8ZMM8); experiment: as above
T2 sequence: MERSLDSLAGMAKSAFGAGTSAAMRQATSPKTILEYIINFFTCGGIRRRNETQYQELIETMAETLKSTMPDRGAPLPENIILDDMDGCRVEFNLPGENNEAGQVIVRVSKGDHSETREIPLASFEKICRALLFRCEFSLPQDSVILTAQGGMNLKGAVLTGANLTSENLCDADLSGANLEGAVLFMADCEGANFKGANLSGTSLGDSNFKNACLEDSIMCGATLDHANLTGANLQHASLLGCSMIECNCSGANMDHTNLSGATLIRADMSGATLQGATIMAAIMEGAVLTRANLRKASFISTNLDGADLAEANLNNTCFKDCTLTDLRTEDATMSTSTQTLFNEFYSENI

With “annexin A2 (AnxA2), endogenous in HeLa cells (from UniProt P07355 1-339)” the binding [1] was “binds” and the binding [2] was “binds”.

These are yes or no findings as the source states them, for the method shown. Binding seen in cells or lysates may run through a third protein. Here binding means that the protein was enriched with, or labelled near, the bait; the list need not be complete.
